Reference: PMC3907535
No constants are given. Whether binding was seen depends on the method and setting. Binding seen in cells or lysates may run through a third protein. Binding can be weak; no strength is given. Tags and fused reporters may be left off the sequences shown.

Key:
[1] = target: T1, NYFP-SPIN1 (rice (Oryza sativa)) (UniProt Q75GR5); assay: split reporter; BiFC with NYFP and CYFP fusions in transfected rice protoplasts, fluorescence microscopy
T1 sequence: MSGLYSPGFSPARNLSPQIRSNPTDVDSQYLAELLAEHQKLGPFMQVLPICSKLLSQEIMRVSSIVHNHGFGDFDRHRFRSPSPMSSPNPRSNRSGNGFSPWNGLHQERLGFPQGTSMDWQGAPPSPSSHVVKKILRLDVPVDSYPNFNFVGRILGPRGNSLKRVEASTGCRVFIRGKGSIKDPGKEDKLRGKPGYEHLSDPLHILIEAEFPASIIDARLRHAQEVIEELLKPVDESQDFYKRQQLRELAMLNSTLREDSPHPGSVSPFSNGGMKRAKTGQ

[2] = target: T2, SPIN1:HA (rice (Oryza sativa)) (UniProt Q75GR5); assay: co-IP; RFP:RBS1 and SPIN1:HA co-expressed in N. benthamiana by agroinfiltration; anti-HA agarose, 4°C overnight; blots with anti-HA and anti-RFP
T2 sequence: T1 sequence

How did the binding [1] turn out when CYFP-RBS1 (rice (Oryza sativa)) was run?
The binding was “binds”.

How did the binding [2] turn out when RFP:RBS1 (rice (Oryza sativa)) was run?
The binding was “binds”.
